Consider 1 compound from patent publication US10695333B2 (NOVARTIS AG, priority 2017, dated 2020).

For the assay, the system named is MCF-7 parental (ER wildtype) cells. Kind of assay: cells. The settings on record: Homo sapiens, MCF7, 168 h, read-out: MCF-7 proliferation Ave IC50, ESR1 WT.

As to `CC/C(=C(\c1ccccc1)c1ccc(OCCN(C)C)cc1)c1ccccc1` [Tamoxifen, reference compound], the IC50 worked out at 4.5 nM.
